In patent US20230381273A1, “NANOPARTICLE IN WHICH ANTIBACTERIAL PEPTIDE IS ENCAPSULATED WITH CHITOSAN AND USE THEREOF” (NATIONAL MARINE BIODIVERSITY INSTITUTE OF KOREA, priority 2022, published 2023):
Part of at least one peptide drawing is inferred or uncertain, most often the ends. Peptide text beside a SMILES is read from it.

How the values were obtained:
C. albicans [1] = assay: Time-kill kinetic analysis (microdilution, OD595); assay type: cell-based, Candida albicans; settings: initial stage
A. baumannii [2] = assay: Time-kill kinetic analysis (microdilution, OD595); assay type: cell-based, Acinetobacter baumannii; settings: initial stage
C. albicans [3] = assay: Ultra-structural (morphological) change by FE-SEM; assay type: cell-based, Candida albicans; settings: 9 hours
A. baumannii [4] = assay: Ultra-structural (morphological) change by FE-SEM; assay type: cell-based, Acinetobacter baumannii; settings: MBC 10 μg/mL, 9 hours
C. albicans [5] = assay: Cell membrane permeability change (PI/FDA staining, confocal microscopy); assay type: cell-based, Candida albicans; settings: 12 hours
A. baumannii [6] = assay: as above; assay type: cell-based, Acinetobacter baumannii; settings: 12 hours
C. albicans biofilm = assay: Biofilm eradication assay (crystal violet staining); assay type: cell-based, Candida albicans; settings: preformed biofilm, 24 hours
A. baumannii biofilm = assay: as above; assay type: cell-based, Acinetobacter baumannii; settings: preformed biofilm, 24 hours

CC[C@H](C)[C@H](NC(=O)[C@H](C)NC(=O)[C@H](CCCCN)NC(=O)CNC(=O)[C@H](C)NC(=O)[C@H](Cc1c[nH]cn1)NC(=O)[C@@H](NC(=O)[C@H](C)NC(=O)CNC(=O)[C@H](CCCNC(=N)N)NC(=O)[C@@H](NC(=O)[C@H](CC(C)C)NC(=O)[C@H](Cc1c[nH]c2ccccc12)NC(=O)CN)[C@@H](C)CC)[C@@H](C)CC)C(=O)N[C@@H](Cc1c[nH]cn1)C(=O)NCC(=O)N[C@@H](CC(C)C)C(=O)N[C@H](C(=O)N[C@@H](Cc1c[nH]cn1)C(=O)N[C@@H](CCCNC(=N)N)C(=O)N[C@@H](CCCNC(=N)N)C(=O)N[C@@H](CCCNC(=N)N)C(=O)N[C@@H](Cc1c[nH]cn1)C(=O)O)[C@@H](C)CC [octominin] (H-GWLIRGAIHAGKAIHGLIHRRRH-OH)
time-kill kinetic activity, comparison (C. albicans [1]): higher antibacterial and antifungal activity than the octominin-CNP | time-kill kinetic activity, comparison (A. baumannii [2]): higher antibacterial and antifungal activity than the octominin-CNP | morphological change of fungal cell surface (C. albicans [3]; MBC (200 μg/mL)): cell contraction and cell destruction in a small number of cells | morphological change of fungal cell surface (C. albicans [3]; MIC 50 μg/mL): small pores were formed | morphological change of bacterial cells (A. baumannii [4]): hole formation and bacterial cell damage | membrane permeability change (PI red / FDA green fluorescence) (C. albicans [5]; MBC level): only red fluorescence without green fluorescence was observed | membrane permeability change (PI red / FDA green fluorescence) (C. albicans [5]; MIC concentration): red fluorescent cells were observed and green fluorescent cells were observed at low levels | membrane permeability change (PI red / FDA green fluorescence) (A. baumannii [6]; MBC level): only red fluorescence without green fluorescence was observed | membrane permeability change (PI red / FDA green fluorescence) (A. baumannii [6]; MIC concentration): red fluorescent cells were observed and green fluorescent cells were observed at low levels | biofilm eradication activity (C. albicans biofilm; MBC concentration): 63.57% | biofilm eradication activity (C. albicans biofilm; MIC concentration): 41.50% | biofilm eradication activity (A. baumannii biofilm; MBC concentration): 80.53% | biofilm eradication activity (A. baumannii biofilm; MIC concentration): 55.66%
